Values of other authors in patent publication US20130028974A1, “PHARMACEUTICAL FORMULATION IN THE FORM OF BILAYERED TABLETS COMPRISING HMG-COA REDUCTASE INHIBITOR AND IRBESARTAN” (HANMI SCIENCE CO., LTD, priority 2010, published 2013).

Settings: crystalline form versus amorphous form

Increase in Cmax (in vivo absorption rate): ~50%
Structure (SMILES): CC(C)c1c(C(=O)Nc2ccccc2)c(-c2ccccc2)c(-c2ccc(F)cc2)n1CC[C@@H](O)C[C@@H](O)CC(=O)O [crystalline form of atorvastatin, atorvastatin]
